Results taken from article PMC3145648.
These are yes or no findings as the source states them, for the method shown. Binding seen in cells or lysates may run through a third protein. A result given as binding can be weak or reduced; the word gives no strength.

T1: HSP47, endogenous in rat primary cortical neurons (rat (endogenous in primary cortical neurons)) (UniProt P29457)
T1 sequence: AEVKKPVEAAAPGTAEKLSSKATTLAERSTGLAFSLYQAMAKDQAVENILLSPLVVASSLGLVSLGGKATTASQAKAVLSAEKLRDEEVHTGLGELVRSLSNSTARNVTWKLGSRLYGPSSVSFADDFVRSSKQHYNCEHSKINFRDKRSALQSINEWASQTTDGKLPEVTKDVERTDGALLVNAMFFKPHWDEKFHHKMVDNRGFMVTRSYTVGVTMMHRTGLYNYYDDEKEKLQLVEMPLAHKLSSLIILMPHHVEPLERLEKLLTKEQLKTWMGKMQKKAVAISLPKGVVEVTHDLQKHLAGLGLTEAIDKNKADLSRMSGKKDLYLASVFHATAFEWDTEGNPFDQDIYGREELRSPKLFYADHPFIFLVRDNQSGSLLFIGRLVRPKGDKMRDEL


Legend:
[1] = biological target: T1, HSP47, endogenous in rat primary cortical neurons (rat (endogenous in primary cortical neurons)); assay: cross-linking + co-IP; primary rat cortical neurons (4 DIV) exposed to DSP (200 µg/ml in PBS, 10 min, room temperature) before lysis; lysates precipitated with control (MBP), anti-HSP47 or anti-APP (6E10) antibodies on Dynabeads protein G, blotted with anti-APP (C-Term) or anti-HSP47
[2] = biological target: APP, endogenous in rat primary cortical neurons (rat (endogenous in primary cortical neurons)); assay: as above

| binding [1] | binding [2] | Molecule |
| --- | --- | --- |
| binds |  | APP, endogenous in rat primary cortical neurons |
|  | binds | HSP47, endogenous in rat primary cortical neurons (protein, UniProt P29457 18-417) AEVKKPVEAAAPGTAEKLSSKATTLAERSTGLAFSLYQAMAKDQAVENILLSPLVVASSLGLVSLGGKATTASQAKAVLSAEKLRDEEVHTGLGELVRSLSNSTARNVTWKLGSRLYGPSSVSFADDFVRSSKQHYNCEHSKINFRDKRSALQSINEWASQTTDGKLPEVTKDVERTDGALLVNAMFFKPHWDEKFHHKMVDNRGFMVTRSYTVGVTMMHRTGLYNYYDDEKEKLQLVEMPLAHKLSSLIILMPHHVEPLERLEKLLTKEQLKTWMGKMQKKAVAISLPKGVVEVTHDLQKHLAGLGLTEAIDKNKADLSRMSGKKDLYLASVFHATAFEWDTEGNPFDQDIYGREELRSPKLFYADHPFIFLVRDNQSGSLLFIGRLVRPKGDKMRDEL |
